{
  "source": "the supplement of paper PMC8728848",
  "binders": {"B1": {"name": "pTFF2 (Sus scrofa), P01359 (protein)", "chain": "KPAACRCSRQDPKNRVNCGFPGITSDQCFTSGCCFDSQVPGVPWCFKPLPAQESEECVMEVSARKNCGYPGISPEDCAARNCCFSDTIPEVPWCFFPMSVEACHY"}},
  "experiment_in_all_cases": "glycan array binding signal (z-score within array); higher = stronger binding",
  "settings_in_all_cases": "glycan notation: IUPAC condensed, linker removed",
  "key": {"Fuc(a1-2)Gal": {"biological_target": "Fuc(a1-2)Gal", "how_it_was_run": "(§1)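 Glycan array data were curated from 3228 arrays in the Consortium for Functional Glycomics database and kept only where the protein sequence was available. Glycan names were converted to IUPAC-condensed notation, and columns mapping to the same glycan were averaged. The binding signal is a within-array Z-score, averaged across arrays of the same protein sequence at different concentrations or buffers and across linkers. Negative Z-scores can be read as non-binding.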"}, "Fuc(a1-2)Gal(b1-3)GalNAc": {"biological_target": "Fuc(a1-2)Gal(b1-3)GalNAc", "how_it_was_run": "as §1"}, "[1]": {"biological_target": "Fuc(a1-2)Gal(b1-3)GalNAc(a1-3)[Fuc(a1-2)]Gal(b1-4)Glc", "how_it_was_run": "as §1"}, "[2]": {"biological_target": "Fuc(a1-2)Gal(b1-3)GalNAc(a1-3)[Fuc(a1-2)]Gal(b1-4)GlcNAc", "how_it_was_run": "as §1"}, "[3]": {"biological_target": "Fuc(a1-2)Gal(b1-3)GalNAc(b1-3)Gal", "how_it_was_run": "as §1"}, "[4]": {"biological_target": "Fuc(a1-2)Gal(b1-3)GalNAc(b1-3)Gal(a1-4)Gal(b1-4)Glc", "how_it_was_run": "as §1"}, "[5]": {"biological_target": "Fuc(a1-2)Gal(b1-3)GalNAc(b1-4)[Neu5Ac(a2-3)]Gal(b1-4)Glc", "how_it_was_run": "as §1"}, "Fuc(a1-2)Gal(b1-3)GlcNAc": {"biological_target": "Fuc(a1-2)Gal(b1-3)GlcNAc", "how_it_was_run": "as §1"}, "[6]": {"biological_target": "Fuc(a1-2)Gal(b1-3)GlcNAc(b1-2)Man(a1-3)[Fuc(a1-2)Gal(b1-3)GlcNAc(b1-2)Man(a1-6)]Man(b1-4)GlcNAc(b1-4)GlcNAc", "how_it_was_run": "as §1"}, "[7]": {"biological_target": "Fuc(a1-2)Gal(b1-3)GlcNAc(b1-2)Man(a1-3)[Fuc(a1-2)Gal(b1-3)GlcNAc(b1-2)Man(a1-6)]Man(b1-4)GlcNAc(b1-4)[Fuc(a1-6)]GlcNAc", "how_it_was_run": "as §1"}, "[8]": {"biological_target": "Fuc(a1-2)Gal(b1-3)GlcNAc(b1-3)Gal(b1-4)Glc", "how_it_was_run": "as §1"}, "[9]": {"biological_target": "Fuc(a1-2)Gal(b1-3)GlcNAc(b1-3)GalNAc", "how_it_was_run": "as §1"}, "[10]": {"biological_target": "Fuc(a1-2)Gal(b1-3)GlcNAc(b1-3)[Fuc(a1-2)Gal(b1-3)GlcNAc(b1-6)]GalNAc", "how_it_was_run": "as §1"}, "[11]": {"biological_target": "Fuc(a1-2)Gal(b1-3)GlcNAc(b1-3)[Gal(b1-4)GlcNAc(b1-6)]Gal(b1-4)Glc", "how_it_was_run": "as §1"}, "[12]": {"biological_target": "Fuc(a1-2)Gal(b1-3)GlcNAc(b1-3)[Neu5Ac(a2-6)Gal(b1-4)GlcNAc(b1-6)]Gal(b1-4)Glc", "how_it_was_run": "as §1"}, "[13]": {"biological_target": "Fuc(a1-2)Gal(b1-3)GlcNAc6S", "how_it_was_run": "as §1"}, "[14]": {"biological_target": "Fuc(a1-2)Gal(b1-3)[Fuc(a1-4)]GlcNAc", "how_it_was_run": "as §1"}, "[15]": {"biological_target": "Fuc(a1-2)Gal(b1-3)[Fuc(a1-4)]GlcNAc(b1-2)Man(a1-3)[Fuc(a1-2)Gal(b1-3)[Fuc(a1-4)]GlcNAc(b1-2)Man(a1-3)]Man(b1-4)GlcNAc(b1-4)GlcNAc", "how_it_was_run": "as §1"}, "[16]": {"biological_target": "Fuc(a1-2)Gal(b1-3)[Fuc(a1-4)]GlcNAc(b1-2)Man(a1-3)[Fuc(a1-2)Gal(b1-3)[Fuc(a1-4)]GlcNAc(b1-2)Man(a1-6)]Man(b1-4)GlcNAc(b1-4)[Fuc(a1-6)]GlcNAc(b1-4)[Fuc(a1-6)]GlcNAc", "how_it_was_run": "as §1"}, "[17]": {"biological_target": "Fuc(a1-2)Gal(b1-3)[Fuc(a1-4)]GlcNAc(b1-3)[Fuc(a1-3)[Gal(b1-4)]GlcNAc(b1-6)]Gal(b1-4)Glc", "how_it_was_run": "as §1"}, "[18]": {"biological_target": "Fuc(a1-2)Gal(b1-3)[Fuc(a1-4)]GlcNAc(b1-3)[Gal(b1-4)GlcNAc(b1-6)]Gal(b1-4)Glc", "how_it_was_run": "as §1"}, "[19]": {"biological_target": "Fuc(a1-2)Gal(b1-4)Fuc(a1-3)]GlcNAc(b1-2)Man(a1-3)[Fuc(a1-2)Gal(b1-4)[Fuc(a1-3)]GlcNAc(b1-2)Man(a1-6)]Man(b1-4)GlcNAc(b1-4)GlcNAc", "how_it_was_run": "as §1"}, "Fuc(a1-2)Gal(b1-4)Glc": {"biological_target": "Fuc(a1-2)Gal(b1-4)Glc", "how_it_was_run": "as §1"}, "Fuc(a1-2)Gal(b1-4)Glc6S": {"biological_target": "Fuc(a1-2)Gal(b1-4)Glc6S", "how_it_was_run": "as §1"}, "Fuc(a1-2)Gal(b1-4)GlcNAc": {"biological_target": "Fuc(a1-2)Gal(b1-4)GlcNAc", "how_it_was_run": "as §1"}, "[20]": {"biological_target": "Fuc(a1-2)Gal(b1-4)GlcNAc(b1-2)Man", "how_it_was_run": "as §1"}, "[21]": {"biological_target": "Fuc(a1-2)Gal(b1-4)GlcNAc(b1-2)Man(a1-3)[Fuc(a1-2)Gal(b1-4)GlcNAc(b1-2)Man(a1-6)]Man(b1-4)GlcNAc(b1-4)GlcNAc", "how_it_was_run": "as §1"}, "[22]": {"biological_target": "Fuc(a1-2)Gal(b1-4)GlcNAc(b1-2)Man(a1-3)[Fuc(a1-2)Gal(b1-4)GlcNAc(b1-2)Man(a1-6)]Man(b1-4)GlcNAc(b1-4)[Fuc(a1-6)]GlcNAc", "how_it_was_run": "as §1"}, "[23]": {"biological_target": "Fuc(a1-2)Gal(b1-4)GlcNAc(b1-2)[Fuc(a1-2)Gal(b1-4)GlcNAc(b1-4)]Man(a1-3)[Fuc(a1-2)Gal(b1-4)GlcNAc(b1-2)Man(a1-6)]Man(b1-4)GlcNAc(b1-4)GlcNAc", "how_it_was_run": "as §1"}, "[24]": {"biological_target": "Fuc(a1-2)Gal(b1-4)GlcNAc(b1-3)Gal(b1-4)GlcNAc", "how_it_was_run": "as §1"}},
  "note": "The other results are listed elsewhere or left out.",
  "data": [
    {"binder": "B1", "values": [
      {"measurement": "glycan array binding signal (z-score)", "setting": "Fuc(a1-2)Gal", "value": -0.498},
      {"measurement": "glycan array binding signal (z-score)", "setting": "Fuc(a1-2)Gal(b1-3)GalNAc", "value": 0.422},
      {"measurement": "glycan array binding signal (z-score)", "setting": "[1]", "value": -0.793},
      {"measurement": "glycan array binding signal (z-score)", "setting": "[2]", "value": -0.918},
      {"measurement": "glycan array binding signal (z-score)", "setting": "[3]", "value": -0.826},
      {"measurement": "glycan array binding signal (z-score)", "setting": "[4]", "value": -0.047},
      {"measurement": "glycan array binding signal (z-score)", "setting": "[5]", "value": 1.92},
      {"measurement": "glycan array binding signal (z-score)", "setting": "Fuc(a1-2)Gal(b1-3)GlcNAc", "value": -0.922},
      {"measurement": "glycan array binding signal (z-score)", "setting": "[6]", "value": 1.71},
      {"measurement": "glycan array binding signal (z-score)", "setting": "[7]", "value": -0.351},
      {"measurement": "glycan array binding signal (z-score)", "setting": "[8]", "value": 0.538},
      {"measurement": "glycan array binding signal (z-score)", "setting": "[9]", "value": -0.489},
      {"measurement": "glycan array binding signal (z-score)", "setting": "[10]", "value": 0.143},
      {"measurement": "glycan array binding signal (z-score)", "setting": "[11]", "value": 1.25},
      {"measurement": "glycan array binding signal (z-score)", "setting": "[12]", "value": -0.709},
      {"measurement": "glycan array binding signal (z-score)", "setting": "[13]", "value": -1.21},
      {"measurement": "glycan array binding signal (z-score)", "setting": "[14]", "value": 0.425},
      {"measurement": "glycan array binding signal (z-score)", "setting": "[15]", "value": -2.01},
      {"measurement": "glycan array binding signal (z-score)", "setting": "[16]", "value": -0.292},
      {"measurement": "glycan array binding signal (z-score)", "setting": "[17]", "value": -0.099},
      {"measurement": "glycan array binding signal (z-score)", "setting": "[18]", "value": -0.307},
      {"measurement": "glycan array binding signal (z-score)", "setting": "[19]", "value": 0.412},
      {"measurement": "glycan array binding signal (z-score)", "setting": "Fuc(a1-2)Gal(b1-4)Glc", "value": 0.762},
      {"measurement": "glycan array binding signal (z-score)", "setting": "Fuc(a1-2)Gal(b1-4)Glc6S", "value": -0.096},
      {"measurement": "glycan array binding signal (z-score)", "setting": "Fuc(a1-2)Gal(b1-4)GlcNAc", "value": -0.534},
      {"measurement": "glycan array binding signal (z-score)", "setting": "[20]", "value": -0.686},
      {"measurement": "glycan array binding signal (z-score)", "setting": "[21]", "value": 0.121},
      {"measurement": "glycan array binding signal (z-score)", "setting": "[22]", "value": 0.732},
      {"measurement": "glycan array binding signal (z-score)", "setting": "[23]", "value": 1.61},
      {"measurement": "glycan array binding signal (z-score)", "setting": "[24]", "value": 0.988}
    ]}
  ]
}
